According to US20240010704A1, “CHIMERIC SENSOR PROTEIN AND METHODS OF USE THEREOF” (Universitaet Leipzig, priority 2020, published 2024):
Residue numbers refer to the chain shown, from its start.

B1: CIRL^H>A-NRS-LexA: NTF release sensor for dmCIRL, GPS cleavage site mutated (His to Ala at −2) (protein)
chain: MKLCILLAVVAFVGLSLGETGFPKSLSVLNSRCAHKQSCGVLAATSMFGDPCPGTHKYLEAHYQCISAAQTSTTTNRPSPPPWVLSNGPPIFGNGSGLIHPPGVGAGAPPPPRLPTLPGVVGISGNPGLFNVPPQHTAVTHSTPSSSTTAVGGGRLKGGATSTTTTKHPAGRHDGLPPPPQLHHHHNHHGEDTASPTKPSSKLPAGGNATSPSNTRILTGVGGSGTDDGTLLTTKSSPNRPPGTAASGSVVPGNGSVVRTINNINLNAAGMSGGDDESKLFCGPTHARNLYWNMTRVGDVNVQPCPGGAAGIAKWRCVLMKRIPDSGYDEYDDDISSTTPAPSGGDCLHNSSSCEPPVSMAHKVNQRLRNFEPTWHPATPDLTQCRSLWLNNLEMRVNQRDSSLISIANDMSEVTSSKTLYGGDMLVTTKIIQTVSEKMMHDKETFPDQRQREAMIMELLHCVVKTGSNLLDESQLSSWLDLNPEDQMRVATSLLTGLEYNAFLLADTIIRERSVVQKVKNILLSVRVLETKTIQSSVVFPDSDQWPLSSDRIELPRAALIDNSEGGLVRIVFAAFDRLESILKPSYDHFDLKSSRSYAILSNDSDVNAGEIQQRLRILNSKVISASLGKGRHIQLSQPITLTLKHLKTENVTNPTCVFWNYIDHAWSANGCSLESTNRTHSVCSCNALTNFAILMDVVDEHQHSLFTMFDGNMRPRIDTAAKHQLRNDFQIHSVRGIKNPGDEDNGEPPANVKYVITGIILVIIALAFFGMVLSTQRKRSGPPKLKALTARQQEVFDLIRDHISQTGMPPTRAEIAQRLGFRSPNAAEEHLKALARKGVIEIVSGASRGIRLLQEEEEGLPLVGRVAAGEPLLAQQHIEGHYQVDPSLFKPNADFLLRVSGMSMKDIGIMDGDLLAVHKTQDVRNGQVVVARIDDEVTVKRLKKQGNKVELLPENSEFKPIVVDLRQQSFTIEGLAVGVIRNGDWLEFPGIRRPAGIPGDLAPPTDVSLGDELHLDGEDVAMAHADALDDFDLDMLGDGDSPGPGFTPHDSAPYGALDMADFEFEQMFTDALGIDEYGGASRYLDPAFLYKVVSSATMDYKDHDGDYKDHDIDYKDDDDKHRST
modifications: Full-length NTF release sensor for dmCIRL (GPS cleavage site mutated)
B2: CIRL-NRS^S3-LexA: NTF release sensor for dmCIRL, S3 cleavage site mutated (disabled γ-secretase recognition) (protein)
chain: B1 chain with A688H, V773K
modifications: Full-length NTF release sensor for dmCIRL (S3 cleavage site mutated)

Tested on: Drosophila melanogaster fly head homogenates
Assay: Western blot analysis of fly head homogenates expressing sensor variants
Conditions: FIG. 10C

Row | Molecule | GPS cleavage | S3 proteolytic processing
1 | B1 | entirely blocked | –
2 | B2 | – | quenched
